Assay [1] concerns the target USP54 catalytic domain, residues 21–369, wild type (human) (UniProt Q70EL1). The assay is described as follows: SEC-MALS; 60 µl at 2 mg ml^−1 on Superdex 75 Increase 10/300 in 20 mM Tris pH 8.0, 100 mM NaCl; USP54 21-369 alone, conjugated to ubiquitin–PA or to K63-linked diubiquitin–PA; both purified. Background: In gel filtration, larger molecules generally elute earlier.

The target is the same in assay [2]. Description: crystal structure; USP54 21-369 covalently conjugated to K63-linked diubiquitin–PA, 13 mg ml^−1; 100 mM HEPES pH 6.8, 27.2% PEG400, 200 mM CaCl2, 20 °C; four copies in the asymmetric unit; both purified.

These are yes or no findings as the source states them, for the method shown.

B1: USP54 catalytic domain, residues 21–369, wild type (enzyme, UniProt Q70EL1 21-369)
chain: PRSSTSIAPSKGLSNEPGQNSCFLNSALQVLWHLDIFRRSFRQLTTHKCMGDSCIFCALKGIFNQFQCSSEKVLPSDTLRSALAKTFQDEQRFQLGIMDDAAECFENLLMRIHFHIADETKEDICTAQHCISHQKFAMTLFEQCVCTSCGATSDPLPFIQMVHYISTTSLCNQAICMLERREKPSPSMFGELLQNASTMGDLRNCPSNCGERIRIRRVLMNAPQIITIGLVWDSDHSDLAEDVIHSLGTCLKLGDLFFRVTDDRAKQSELYLVGMICYYGKHYSTFFFQTKIRKWMYFDDAHVKEIGPKWKDVVTKCIKGHYQPLLLLYADPQGTPVSTQDLPPQAEFQ
Turning to B1, the results for the binding entry in assay [1] and in assay [2] were “no binding (tested: 2 mg ml^−1 injected)” and “no binding”, respectively.

The values are drawn from article PMC12037411.
